Structures can show the parent of a compound that is named as a salt. ± gives the standard deviation of the averaged measurements. Some of the results follow. Values are raw readings; no control value is given beside them.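 Ribosome-assembly readouts in HeLa cells were imaged via ENP1 staining, with or without export block, or inducible tagged ribosomal protein reporters. Machine learning classified per-cell signal location versus solvent (DMSO) controls. Hits surpassed the DMSO false-positive mean by five standard deviations and were visually confirmed; three biological replicates.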
Tests used:
[1] = tested on: HeLa K (ENP1 immunofluorescence, +LMB); test: fraction of cells with nucleolar or nucleolar/nucleoplasmic ENP1 signal (MainHitrate); higher = more cells with nucleolar/nuclear readout signal (for ENP1 -LMB: less RNAPI inhibition; for +LMB ENP1 and RP reporters: stronger nuclear/nucleolar retention, i.e. ribosome biogenesis defect); details: concentration: 1 µM; treatment time: 6 h; ENP1 +LMB; leptomycin B: 20 nM, last 1.5 h
[2] = tested on: HeLa K (ENP1 immunofluorescence, no LMB); test: as above; details: concentration: 1 µM; treatment time: 6 h; ENP1 -LMB; leptomycin B: none
HeLa RPS2-YFP reporter = test: fraction of reporter-positive cells with nuclear (nucleolar or nucleolar/nucleoplasmic) RPS2-YFP (MainHitrate); higher = more cells with nucleolar/nuclear readout signal (for ENP1 -LMB: less RNAPI inhibition; for +LMB ENP1 and RP reporters: stronger nuclear/nucleolar retention, i.e. ribosome biogenesis defect); details: concentration: 1 µM; treatment time: 6 h
HeLa RPL29-GFP reporter = test: fraction of reporter-positive cells with nuclear (nucleolar or nucleolar/nucleoplasmic) RPL29-GFP (MainHitrate); higher = more cells with nucleolar/nuclear readout signal (for ENP1 -LMB: less RNAPI inhibition; for +LMB ENP1 and RP reporters: stronger nuclear/nucleolar retention, i.e. ribosome biogenesis defect); details: concentration: 1 µM; treatment time: 6 h

COc1cc2c(cc1OC)CC(=O)N(CCCN(C)C[C@H]1Cc3cc(OC)c(OC)cc31)CC2 [Ivabradine HCl (Procoralan)]
fraction [1]: 0.0734 ± 0.1
fraction [2]: 0.9958 ± 0.0073
fraction of reporter-positive cells with nuclear (HeLa RPS2-YFP reporter): 0.0909 ± 0.061
fraction of reporter-positive cells with nuclear (HeLa RPL29-GFP reporter): 0.203 ± 0.028

CN(C(=O)CN(CCO)CC(=O)N(C)C(C)(C)Cc1ccccc1)C(C)(C)Cc1ccccc1 [Oxethazaine]
fraction [1]: 0.0909 ± 0.11
fraction [2]: 0.907 ± 0.16
fraction of reporter-positive cells with nuclear (HeLa RPS2-YFP reporter): 0.18 ± 0.16
fraction of reporter-positive cells with nuclear (HeLa RPL29-GFP reporter): 0.305 ± 0.28

CC(=O)OCC(=O)[C@H]1CC[C@H]2[C@@H]3CCC4=CC(=O)CC[C@]4(C)[C@H]3CC[C@]12C [Deoxycorticosterone acetate]
fraction [1]: 0.0429 ± 0.057
fraction [2]: 0.985 ± 0.026
fraction of reporter-positive cells with nuclear (HeLa RPS2-YFP reporter): 0.142 ± 0.12
fraction of reporter-positive cells with nuclear (HeLa RPL29-GFP reporter): 0.225 ± 0.066

Cc1cc(-n2c(=O)[nH]c(=O)n(C)c2=O)ccc1Oc1ccc(SC(F)(F)F)cc1 [toltrazuril]
fraction [1]: 0.0309 ± 0.031
fraction [2]: 0.992 ± 0.015
fraction of reporter-positive cells with nuclear (HeLa RPS2-YFP reporter): 0.117 ± 0.11
fraction of reporter-positive cells with nuclear (HeLa RPL29-GFP reporter): 0.195 ± 0.058

CC(=O)Oc1cc(C(F)(F)F)ccc1C(=O)O [Triflusal]
fraction [1]: 0.0673 ± 0.094
fraction [2]: 0.979 ± 0.036
fraction of reporter-positive cells with nuclear (HeLa RPS2-YFP reporter): 0.098 ± 0.083
fraction of reporter-positive cells with nuclear (HeLa RPL29-GFP reporter): 0.212 ± 0.06

CC1(C)S[C@@H]2[C@H](NC(=O)[C@H](N)c3ccc(O)cc3)C(=O)N2[C@H]1C(=O)O [Amoxicillin (Amoxycillin)]
fraction [1]: 0.0998 ± 0.14
fraction [2]: 0.992 ± 0.013
fraction of reporter-positive cells with nuclear (HeLa RPS2-YFP reporter): 0.109 ± 0.084
fraction of reporter-positive cells with nuclear (HeLa RPL29-GFP reporter): 0.223 ± 0.064

COc1ccc2c(c1OC)C(=O)O[C@@H]2[C@H]1c2c(cc3c(c2OC)OCO3)CCN1C [Noscapine HCl]
fraction [1]: 0.154 ± 0.23
fraction [2]: 0.9966 ± 0.0059
fraction of reporter-positive cells with nuclear (HeLa RPS2-YFP reporter): 0.162 ± 0.16
fraction of reporter-positive cells with nuclear (HeLa RPL29-GFP reporter): 0.274 ± 0.22

Cc1ccc(NC(=O)c2ccc(CN3CCN(C)CC3)cc2)cc1Nc1nc(-c2cccnc2)cs1 [Masitinib (AB1010)]
fraction [1]: 0.08 ± 0.05
fraction [2]: 0.998 ± 0.0034
fraction of reporter-positive cells with nuclear (HeLa RPS2-YFP reporter): 0.103 ± 0.092
fraction of reporter-positive cells with nuclear (HeLa RPL29-GFP reporter): 0.193 ± 0.028

COc1ccc(CC2c3cc(OC)c(OC)cc3CC[N+]2(C)CCC(=O)OCCCCCOC(=O)CC[N+]2(C)CCc3cc(OC)c(OC)cc3C2Cc2ccc(OC)c(OC)c2)cc1OC (centres undefined) [Atracurium besylate]
fraction [1]: 0.0879 ± 0.11
fraction [2]: 0.9954 ± 0.008
fraction of reporter-positive cells with nuclear (HeLa RPS2-YFP reporter): 0.129 ± 0.097
fraction of reporter-positive cells with nuclear (HeLa RPL29-GFP reporter): 0.243 ± 0.085

CC1(C)O[C@@H]2C[C@H]3[C@@H]4CCC5=CC(=O)C=C[C@]5(C)[C@@]4(F)[C@@H](O)C[C@]3(C)[C@]2(C(=O)CO)O1 [Triamcinolone Acetonide]
fraction [1]: 0.0948 ± 0.11
fraction [2]: 0.9987 ± 0.0023
fraction of reporter-positive cells with nuclear (HeLa RPS2-YFP reporter): 0.176 ± 0.11
fraction of reporter-positive cells with nuclear (HeLa RPL29-GFP reporter): 0.236 ± 0.062

C[C@@H]1CN(c2c(F)c(N)c3c(=O)c(C(=O)O)cn(C4CC4)c3c2F)C[C@H](C)N1 [Sparfloxacin]
fraction [1]: 0.108 ± 0.13
fraction [2]: 0.986 ± 0.024
fraction of reporter-positive cells with nuclear (HeLa RPS2-YFP reporter): 0.13 ± 0.066
fraction of reporter-positive cells with nuclear (HeLa RPL29-GFP reporter): 0.241 ± 0.093

CCC1(c2ccccc2)C(=O)NCNC1=O [Primidone (Mysoline)]
fraction [1]: 0.103 ± 0.15
fraction [2]: 0.9943 ± 0.0099
fraction of reporter-positive cells with nuclear (HeLa RPS2-YFP reporter): 0.0575 ± 0.013
fraction of reporter-positive cells with nuclear (HeLa RPL29-GFP reporter): 0.249 ± 0.074

Nc1cc(N2CCCCC2)nc(N)[n+]1[O-] [Minoxidil]
fraction [1]: 0.17 ± 0.18
fraction [2]: 0.9974 ± 0.0046
fraction of reporter-positive cells with nuclear (HeLa RPS2-YFP reporter): 0.106 ± 0.083
fraction of reporter-positive cells with nuclear (HeLa RPL29-GFP reporter): 0.22 ± 0.055

O=C(O)Cc1ccccc1Nc1c(Cl)cccc1Cl [Diclofenac]
fraction [1]: 0.0906 ± 0.13
fraction [2]: 0.992 ± 0.014
fraction of reporter-positive cells with nuclear (HeLa RPS2-YFP reporter): 0.0628 ± 0.042
fraction of reporter-positive cells with nuclear (HeLa RPL29-GFP reporter): 0.199 ± 0.062

CN(CCOc1ccc(CC2SC(=O)NC2=O)cc1)c1ccccn1 (centres undefined) [Rosiglitazone (Avandia)]
fraction [1]: 0.125 ± 0.18
fraction [2]: 0.9976 ± 0.0041
fraction of reporter-positive cells with nuclear (HeLa RPS2-YFP reporter): 0.0513 ± 0.033
fraction of reporter-positive cells with nuclear (HeLa RPL29-GFP reporter): 0.231 ± 0.083

COC(=O)C1=C(C#N)NC(C)=C(C(=O)OC(C)C)C1c1cccc([N+](=O)[O-])c1 (centres undefined) [Nilvadipine (ARC029)]
fraction [1]: 0.0542 ± 0.076
fraction [2]: 0.98 ± 0.035
fraction of reporter-positive cells with nuclear (HeLa RPS2-YFP reporter): 0.138 ± 0.087
fraction of reporter-positive cells with nuclear (HeLa RPL29-GFP reporter): 0.257 ± 0.093

C[N+](C)(C)CC(O)CC(=O)[O-] (racemic) [DL-Carnitine hydrochloride]
fraction [1]: 0.136 ± 0.2
fraction [2]: 0.986 ± 0.025
fraction of reporter-positive cells with nuclear (HeLa RPS2-YFP reporter): 0.106 ± 0.093
fraction of reporter-positive cells with nuclear (HeLa RPL29-GFP reporter): 0.216 ± 0.096

O=C(NC[C@H]1CN(c2ccc(N3CCOCC3=O)cc2)C(=O)O1)c1ccc(Cl)s1 [Rivaroxaban (Xarelto)]
fraction [1]: 0.0854 ± 0.12
fraction [2]: 0.989 ± 0.019
fraction of reporter-positive cells with nuclear (HeLa RPS2-YFP reporter): 0.116 ± 0.11
fraction of reporter-positive cells with nuclear (HeLa RPL29-GFP reporter): 0.202 ± 0.073

COc1ccc2[nH]c([S@@+]([O-])Cc3ncc(C)c(OC)c3C)nc2c1 [Esomeprazole magnesium (Nexium)]
fraction [1]: 0.104 ± 0.091
fraction [2]: 0.9988 ± 0.002
fraction of reporter-positive cells with nuclear (HeLa RPS2-YFP reporter): 0.108 ± 0.088
fraction of reporter-positive cells with nuclear (HeLa RPL29-GFP reporter): 0.227 ± 0.067

O=C(O)C1=CO[C@@H](O[C@@H]2O[C@H](CO)[C@@H](O)[C@H](O)[C@H]2O)[C@@H]2C(CO)=CC[C@H]12 [Geniposidic acid]
fraction [1]: 0.126 ± 0.17
fraction [2]: 0.993 ± 0.012
fraction of reporter-positive cells with nuclear (HeLa RPS2-YFP reporter): 0.132 ± 0.078
fraction of reporter-positive cells with nuclear (HeLa RPL29-GFP reporter): 0.246 ± 0.075

COC(=O)[C@@H]1CC2=CC(=O)CC[C@]2(C)[C@@]23O[C@@H]2C[C@@]2(C)[C@@H](CC[C@@]24CCC(=O)O4)[C@H]13 [Eplerenone]
fraction [1]: 0.0605 ± 0.059
fraction [2]: 0.999 ± 0.0018
fraction of reporter-positive cells with nuclear (HeLa RPS2-YFP reporter): 0.107 ± 0.072
fraction of reporter-positive cells with nuclear (HeLa RPL29-GFP reporter): 0.189 ± 0.083

CCN(CC)CCNC(=O)c1c(C)[nH]c(/C=C2\C(=O)Nc3ccc(F)cc32)c1C [Sunitinib Malate (Sutent)]
fraction [1]: 0.106 ± 0.081
fraction [2]: 0.9984 ± 0.0027
fraction of reporter-positive cells with nuclear (HeLa RPS2-YFP reporter): 0.0872 ± 0.031
fraction of reporter-positive cells with nuclear (HeLa RPL29-GFP reporter): 0.224 ± 0.053

CC1(C)O[C@@H]2[C@@H](CO[C@@]3(COS(N)(=O)=O)OC(C)(C)O[C@@H]23)O1 [Topiramate]
fraction [1]: 0.186 ± 0.15
fraction [2]: 0.9985 ± 0.0027
fraction of reporter-positive cells with nuclear (HeLa RPS2-YFP reporter): 0.0945 ± 0.041
fraction of reporter-positive cells with nuclear (HeLa RPL29-GFP reporter): 0.2 ± 0.048

C#C[C@]1(O)CC[C@H]2[C@@H]3CCC4=CC(=O)CC[C@@H]4[C@H]3CC[C@@]21CC [Levonorgestrel (Levonelle)]
fraction [1]: 0.0918 ± 0.089
fraction [2]: 0.999 ± 0.0018
fraction of reporter-positive cells with nuclear (HeLa RPS2-YFP reporter): 0.143 ± 0.083
fraction of reporter-positive cells with nuclear (HeLa RPL29-GFP reporter): 0.211 ± 0.06

O=C(c1ccccc1)c1ccc2n1CCC2C(=O)O (centres undefined) [Ketorolac (Toradol)]
fraction [1]: 0.0842 ± 0.067
fraction [2]: 0.9982 ± 0.0031
fraction of reporter-positive cells with nuclear (HeLa RPS2-YFP reporter): 0.131 ± 0.099
fraction of reporter-positive cells with nuclear (HeLa RPL29-GFP reporter): 0.22 ± 0.073

CC(=O)S[C@@H]1CC2=CC(=O)CC[C@]2(C)[C@H]2CC[C@@]3(C)[C@@H](CC[C@@]34CCC(=O)O4)[C@H]12 [Spironolactone]
fraction [1]: 0.0723 ± 0.099
fraction [2]: 0.985 ± 0.025
fraction of reporter-positive cells with nuclear (HeLa RPS2-YFP reporter): 0.106 ± 0.086
fraction of reporter-positive cells with nuclear (HeLa RPL29-GFP reporter): 0.221 ± 0.064

— the supplement of paper PMC12542422
